This is one part of the list. Further columns of the screen follow, without active or inactive calls. Compounds called inactive in the main read-out are mostly missing here. Words in brackets tell the shape of the fitted curve; partial curves, single points and poor fits give uncertain potencies.
Test: qHTS Assay for Lipid Storage Modulators in Drosophila S3 Cells;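 as to cell number change: cells counted by Cell Tracker Red CMTPX staining in the red channel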
Conditions: BODIPY lipid droplet fluorescence, 18-24 h; for cell number change: measured here: cell count max response, cells fed with added oleic acid
Summary of the method: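 Drosophila S3 cells got compounds at several concentrations plus oleic acid (400 uM solution). Laser-scanning cytometry with 488 nm excitation read lipid droplets at 500-530 nm and cells at 575-640 nm. Percent activity was relative to 20 uM Triacsin C.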

[1] = measured here: cell number channel AC50, cells fed with added oleic acid
[2] = measured here: lipid fluorescence (Fed channel) AC50, cells fed with added oleic acid

| SMILES | cell number change | AC50 [1] | AC50 [2] |
| --- | --- | --- | --- |
| Cc1ccc(NC(=O)N2CCCC2C(=O)NCC2CCCO2)cc1 (stereo not drawn) | 22% | 2.31 µM [rising, partial curve, poor fit] |  |
| O=C(CSc1nc2ccccc2o1)N/N=C/c1ccccc1C(=O)O |  |  | 36.6 µM [falling, single point] |
| COc1ccc(/C=C(\C#N)c2nc3ccccc3[nH]2)cc1O | -14.7% |  | 29.1 µM [falling, single point] |
| CCCCNc1nc2cccnc2s1 | 56.1% | 20.6 µM [rising, partial curve] |  |
| CCN(CC)c1ccc(S(=O)(=O)N2CCOCC2)cc1NC(=O)CSc1cccc[n+]1[O-] | 80.2% | 16.4 µM [rising, single point] | 18.4 µM [rising, partial curve] |
| CCCCOC(=O)c1ccc(NC(=O)C(=O)NCC2CCCO2)cc1 (stereo not drawn) | 1.92% |  |  |
| CCOC(=O)c1c(NC(=O)CC)sc(C(=O)N2CCCCC2)c1C |  | 0.146 µM [rising, full curve] | 0.116 µM [rising, full curve, poor fit] |
| Cc1ccc(SCC(=O)NCc2ccccc2)cc1 | -1.1% |  | 0.58 µM [rising, single point] |
| COC(=O)C1C(O)=C(C=NCC(C)N=CC2=C(O)C(C(=O)OC)C(C)(C)CC2=O)C(=O)CC1(C)C (stereo not drawn) | 0.113% |  | 29.1 µM [rising, single point] |
| CCOC(=O)N1[C@@H]2C=C(C)[C@@H]2[C@@H]2[C@@H](C)C(=O)N21 | -21.4% |  | 0.58 µM [falling, full curve, poor fit] |
| CC(C)CN(C(=O)COC(=O)c1ccccn1)c1c(N)n(Cc2ccccc2)c(=O)[nH]c1=O | -7.23% |  |  |
| CCc1cc2c(=O)n(N)c(CCC(=O)O)nc2s1 | 5.9% |  |  |
| Cc1occc1-c1nnc(SCC(=O)N2CCN(c3ccc(F)cc3)CC2)n1C | 33.2% | 32.6 µM [rising, single point] |  |
| C/C(=N\NC(=O)c1ccccc1OCCOc1ccccc1)c1ccccc1F | 118% | 2.59 µM [rising, full curve] |  |
| O=C(CSc1nc2nc(-c3cccs3)cc(C(F)(F)F)c2c(=O)[nH]1)Nc1ccc(F)c(F)c1 | 65% | 29.1 µM [rising, single point] |  |
| O=C(Nc1ccccc1)c1ccccc1O | -1.62% |  |  |
| N=C1/C(=C\c2ccc(OC(=O)c3ccc(F)cc3)cc2)C(=O)N=C2SC(N3CCCC3)=NN12 | 9.8% |  | 0.103 µM [rising, full curve, poor fit] |
| CCc1nc2ccc(C(=O)N(C)CC(=O)Nc3ccc(Cl)c(C(F)(F)F)c3)cc2nc1CC | -45.8% | 11.6 µM [falling, partial curve, poor fit] | 7.31 µM [falling, partial curve, poor fit] |
| COc1cc(NC(=S)NCCc2c[nH]c3ccccc23)c(OC)cc1Cl | -25.8% |  | 11.6 µM [falling, partial curve, poor fit] |

In another format: 3 of the compounds above.
SMILES	cell number change	AC50 [1]	AC50 [2]
CCCCOC(=O)c1ccc(NC(=O)C(=O)NCC2CCCO2)cc1 (stereo not drawn)	1.92%		
Cc1ccc(SCC(=O)NCc2ccccc2)cc1	-1.1%		0.58 µM [rising, single point]
C/C(=N\NC(=O)c1ccccc1OCCOc1ccccc1)c1ccccc1F	118%	2.59 µM [rising, full curve]	

(list continues)

| SMILES | cell number change | AC50 [1] | AC50 [2] |
| --- | --- | --- | --- |
| Cc1ccnc(NS(=O)(=O)c2ccc(NS(=O)(=O)c3ccc([N+](=O)[O-])cc3)cc2)n1 | 20.5% |  | 0.103 µM [falling, full curve, poor fit] |
| CCOC(=O)N1CCN(C(=O)C2CCN(S(=O)(=O)c3ccc(F)cc3)CC2)CC1 | -54.2% | 29.1 µM [falling, partial curve, poor fit] | 23.1 µM [falling, partial curve] |
| CCCCn1c(N)c(N(CC(C)C)C(=O)CSCc2c(C)noc2C)c(=O)[nH]c1=O | 10.5% |  |  |
| CC1(C)OC1COc1c2ccoc2cc2oc(=O)ccc12 (stereo not drawn) | 26.8% | 3.66 µM [rising, full curve, poor fit] | 6.51 µM [rising, partial curve, poor fit] |
| Clc1ccc(SCc2nc3ccccc3[nH]2)cc1 | -3.71% |  | 29.1 µM [falling, single point] |
| COc1ccc(S(=O)(=O)Cc2ccc(C(=O)NCc3ccco3)o2)cc1 | 5.93% |  | 20.6 µM [rising, partial curve] |
| C=CCn1c(SCC(=O)c2cccs2)nc2sc(C)cc2c1=O | -18% |  | 3.26 µM [rising, full curve] |
| COC(=O)c1ccc(NC(=O)c2ccccc2N(C)S(=O)(=O)c2ccccc2)cc1 | 53.1% | 20.6 µM [rising, single point] |  |
| O=C(c1cccs1)N1CCN(S(=O)(=O)c2cccc(Cl)c2Cl)CC1 | 78.3% | 18.4 µM [rising, single point] |  |
| CC(=O)NC(CC(=O)Nc1nccs1)c1ccccc1 (stereo not drawn) | 18.2% | 0.0326 µM [rising, full curve, poor fit] | 0.0206 µM [rising, full curve, poor fit] |
| Cc1cc(N/N=C/c2ccccc2O)c2ccccc2n1 | -53.6% | 6.51 µM [falling, full curve] | 6.51 µM [falling, partial curve] |
| CCCOc1ccc(/C=C/C(=O)Nc2ccc([N+](=O)[O-])cc2C)cc1 | 40.8% | 29.1 µM [rising, single point] | 23.1 µM [rising, single point] |
| C=CCN(CC=C)C(=O)CN1C(=O)NC(C)(c2ccc3cc(OC)ccc3c2)C1=O (stereo not drawn) | 40.5% | 0.0326 µM [rising, full curve, poor fit] |  |
| CCC1Oc2ccc(C)cc2N(CC(=O)NCC2COc3ccccc3O2)C1=O (stereo not drawn) | 3.8% |  | 8.2 µM [rising, partial curve, poor fit] |
| CC(=O)Nc1ccc(NC(=O)c2ccccc2Sc2ccc([N+](=O)[O-])cc2Cl)cc1 | -34.7% | 13 µM [falling, partial curve, poor fit] | 5.8 µM [falling, partial curve] |
| CN1CCN(S(=O)(=O)c2cccc(C(=O)Oc3cccc(C#N)c3)c2)CC1 | -19.7% | 0.651 µM [falling, full curve, poor fit] |  |
| COc1ccc(Cn2c(CCC(=O)Nc3ccc(C)c(C)c3)nc3cccnc32)cc1 | -113% |  |  |
| COc1ccc(C2/C(=C(/O)c3ccccc3)C(=O)C(=O)N2c2ccccn2)c(OC)c1 (stereo not drawn) | 50% | 0.0731 µM [rising, full curve, poor fit] | 29.1 µM [rising, partial curve] |
| CCc1ccc(NC(=O)C2CCCCC2C(=O)O)cc1 (stereo not drawn) | -5.29% | 0.731 µM [falling, full curve] |  |

| SMILES | cell number change | AC50 [1] | AC50 [2] |
| --- | --- | --- | --- |
| O=C(Oc1ccc(Cl)c2cccnc12)c1ccco1 | -19.6% | 2.06 µM [falling, single point] |  |
| COC(=O)c1cc(OC)c(OC)cc1NC(=O)Nc1ccc(OC)cc1OC | 3.44% |  | 0.58 µM [rising, partial curve] |
| CC(c1ccccc1)N1C(=O)c2ccc(C(=O)NCc3cccnc3)cc2C1=O (stereo not drawn) | 3.14% |  |  |
| CCOc1ccc(C(=O)N2CCN(c3ccccc3)CC2)cc1OCC |  | 0.146 µM [rising, full curve, poor fit] |  |
| COC(=O)C1=C(C)N(c2ccc(Cl)cc2)/C(=C/c2cccs2)C1=O | 130% | 3.26 µM [rising, full curve] | 29.1 µM [rising, partial curve] |
| CCOc1ccc(C(=O)CCC(=O)NC2=NCCS2)cc1 | -9.89% |  | 0.13 µM [falling, full curve, poor fit] |
| COc1ccc2c(=O)c(-c3nc(C)cs3)coc2c1 |  |  | 4.11 µM [rising, single point] |
| CC(=O)Nc1ccc(S(=O)(=O)N2C3CCCC2CC(NC(=O)C2CCCCC2)C3)cc1 (stereo not drawn) | -3.63% |  |  |
| COc1ccc(/C(C)=N/NC(=O)CNC(=O)/C=C/c2ccccc2OC)cc1 | 15.3% |  |  |
| CCOC(=O)N1CCN(S(=O)(=O)c2c(C)nc3sccn3c2=O)CC1 |  |  | 1.64 µM [falling, partial curve, poor fit] |
| Cc1onc(-c2c(Cl)cccc2Cl)c1C(=O)N/N=C(\N)COc1ccc(Cl)cc1 | -57.5% | 29.1 µM [falling, single point] | 29.1 µM [falling, single point] |
| Cc1ccc(S(=O)(=O)N(CC(O)CN2C(=O)NC(C)(C)C2=O)c2cccc(C)c2)cc1 (stereo not drawn) | 14% | 1.46 µM [rising, partial curve, poor fit] |  |
| Cc1ccc(C(=O)NCC(=O)N2CCN(c3ncccn3)CC2)s1 | 74.1% | 18.4 µM [rising, partial curve] | 0.291 µM [rising, full curve] |
| O=C(CN1C(=O)NC2(CCc3ccccc3C2)C1=O)NCC(F)(F)F (stereo not drawn) | 6.94% |  |  |
| CC12CCC(C(=O)N3CCC(Cc4ccccc4)CC3)(C(=O)C1=O)C2(C)C (stereo not drawn) | 28.5% |  | 18.4 µM [rising, single point] |
| CCOC(=O)c1ccccc1N/C=C1\CCCC1=O | -27.8% |  |  |
| COc1ccc(-n2c(SCCC(=O)O)nnc2-c2ccncc2)cc1 | 62.2% | 7.31 µM [rising, partial curve] | 3.66 µM [rising, single point] |
| Cc1ccc(OCC(=O)NCc2cccs2)c([N+](=O)[O-])n1 |  | 4.11 µM [falling, single point] | 4.61 µM [falling, single point] |
| COc1ccc(OC)c(CNC(=O)CCc2nc(-c3cccs3)no2)c1 | 4.47% | 6.51 µM [rising, single point] | 4.11 µM [rising, full curve] |

From PubChem BioAssay AID2685 (National Center for Advancing Translational Sciences (NCATS), 2010)
